The test has as its target MAC3-N-tagged NFIB4 (human). The experiment in a line: proximity labelling; BioID with UltraID (MAC3-tag) on NFI baits in Flp-In T-REx 293 cells, 50 uM biotin for 16 h; lysis with 0.1% SDS and benzonase; Strep-Tactin beads; HCIs at SAINT BFDR <=0.01 against MAC3-N-tagged GFP.

These are yes or no findings as the source states them, for the method shown. Binding seen in cells or lysates may run through a third protein. These calls come from enrichment with a bait or labelling near it, and not all partners need be listed.

B1: QKI (protein, UniProt Q96PU8 1-341)
chain: MVGEMETKEKPKPTPDYLMQLMNDKKLMSSLPNFCGIFNHLERLLDEEISRVRKDMYNDTLNGSTEKRSAELPDAVGPIVQLQEKLYVPVKEYPDFNFVGRILGPRGLTAKQLEAETGCKIMVRGKGSMRDKKKEEQNRGKPNWEHLNEDLHVLITVEDAQNRAEIKLKRAVEEVKKLLVPAAEGEDSLKKMQLMELAILNGTYRDANIKSPALAFSLAATAQAAPRIITGPAPVLPPAALRTPTPAGPTIMPLIRQIQTAVMPNGTPHPTAAIVPPGPEAGLIYTPYEYPYTLAPATSILEYPIEPSGVLGAVATKVRRHDMRVHPYQRIVTADRAATGN
As to B1, the binding result is listed as “binds”.

B2: TIA1 (protein, UniProt P31483 1-386)
chain: MEDEMPKTLYVGNLSRDVTEALILQLFSQIGPCKNCKMIMDTAGNDPYCFVEFHEHRHAAAALAAMNGRKIMGKEVKVNWATTPSSQKKDTSSSTVVSTQRSQDHFHVFVGDLSPEITTEDIKAAFAPFGRISDARVVKDMATGKSKGYGFVSFFNKWDAENAIQQMGGQWLGGRQIRTNWATRKPPAPKSTYESNTKQLSYDEVVNQSSPSNCTVYCGGVTSGLTEQLMRQTFSPFGQIMEIRVFPDKGYSFVRFNSHESAAHAIVSVNGTTIEGHVVKCYWGKETLDMINPVQQQNQIGYPQPYGQWGQWYGNAQQIGQYMPNGWQVPAYGMYGQAWNQQGFNQTQSSAPWMGPNYGVQPPQGQNGSMLPNQPSGYRVAGYETQ
In the case of B2, the binding result was “binds”.

B3: ESRP2 (protein, UniProt Q9H6T0 1-727)
chain: MTPPPPPPPPPGPDPAADPAADPCPWPGSLVVLFGATAGALGRDLGSDETDLILLVWQVVEPRSRQVGTLHKSLVRAEAAALSTQCREASGLSADSLARAEPLDKVLQQFSQLVNGDVALLGGGPYMLCTDGQQLLRQVLHPEASRKNLVLPDMFFSFYDLRREFHMQHPSTCPARDLTVATMAQGLGLETDATEDDFGVWEVKTMVAVILHLLKEPSSQLFSKPEVIKQKYETGPCSDSTVPCPYSSKADVVDSETVVRARGLPWQSSDQDVARFFKGLNVARGGVALCLNAQGRRNGEALIRFVDSEQRDLALQRHKHHMGVRYIEVYKATGEEFVKIAGGTSLEVARFLSREDQVILRLRGLPFSAGPTDVLGFLGPECPVTGGTEGLLFVRHPDGRPTGDAFALFACEELAQAALRRHKGMLGKRYIELFRSTAAEVQQVLNRYASGPLLPTLTAPLLPIPFPLAPGTGRDCVRLRGLPYTATIEDILSFLGEAAADIRPHGVHMVLNQQGRPSGDAFIQMTSAERALAAAQRCHKKVMKERYVEVVPCSTEEMSRVLMGGTLGRSGMSPPPCKLPCLSPPTYTTFQATPTLIPTETAALYPSSALLPAARVPAAPTPVAYYPGPATQLYLNYTAYYPSPPVSPTTVGYLTTPTAALASAPTSVLSQSGALVRMQGVPYTAGMKDLLSVFQAYQLPADDYTSLMPVGDPPRTVLQAPKEWVCL
For the molecule B3, the binding entry is “binds”.

B4: CPEB4 (protein, UniProt Q17RY0 1-729)
chain: MGDYGFGVLVQSNTGNKSAFPVRFHPHLQPPHHHQNATPSPAAFINNNTAANGSSAGSAWLFPAPATHNIQDEILGSEKAKSQQQEQQDPLEKQQLSPSPGQEAGILPETEKAKSEENQGDNSSENGNGKEKIRIESPVLTGFDYQEATGLGTSTQPLTSSASSLTGFSNWSAAIAPSSSTIINEDASFFHQGGVPAASANNGALLFQNFPHHVSPGFGGSFSPQIGPLSQHHPHHPHFQHHHSQHQQQRRSPASPHPPPFTHRNAAFNQLPHLANNLNKPPSPWSSYQSPSPTPSSSWSPGGGGYGGWGGSQGRDHRRGLNGGITPLNSISPLKKNFASNHIQLQKYARPSSAFAPKSWMEDSLNRADNIFPFPDRPRTFDMHSLESSLIDIMRAENDTIKGRLNYSYPGSDSSLLINARTYGRRRGQSSLFPMEDGFLDDGRGDQPLHSGLGSPHCFSHQNGERVERYSRKVFVGGLPPDIDEDEITASFRRFGPLIVDWPHKAESKSYFPPKGYAFLLFQDESSVQALIDACIEEDGKLYLCVSSPTIKDKPVQIRPWNLSDSDFVMDGSQPLDPRKTIFVGGVPRPLRAVELAMIMDRLYGGVCYAGIDTDPELKYPKGAGRVAFSNQQSYIAAISARFVQLQHGEIDKRVEVKPYVLDDQLCDECQGARCGGKFAPFFCANVTCLQYYCEYCWAAIHSRAGREFHKPLVKEGGDRPRHISFRWN
For B4, the binding entry was “binds”.

The record behind these values is PMC11775196.
